The target in assay [1] is T1, endogenous Stargazin/TARPγ2 from rat brain crude synaptosomes (rat (endogenous in rat brain)) (UniProt Q71RJ2).
T1 sequence: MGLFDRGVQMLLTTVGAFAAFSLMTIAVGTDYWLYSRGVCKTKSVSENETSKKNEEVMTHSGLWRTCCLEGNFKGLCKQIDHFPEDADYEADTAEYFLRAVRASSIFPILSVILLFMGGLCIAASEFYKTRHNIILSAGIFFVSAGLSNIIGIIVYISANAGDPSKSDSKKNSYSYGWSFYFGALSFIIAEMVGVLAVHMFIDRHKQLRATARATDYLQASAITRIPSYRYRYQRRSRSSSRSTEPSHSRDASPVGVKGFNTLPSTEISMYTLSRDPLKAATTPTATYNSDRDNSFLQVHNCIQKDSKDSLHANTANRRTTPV
The experiment in a line: co-IP; endogenous proteins from adult rat brain crude synaptosomes in 50 mM Tris pH 7.4, 100 mM NaCl, 1 mM EDTA, 1% Triton-X; IP with mouse anti-Stargazin/TARPγ2 or rabbit anti-MPP2 and protein-G-agarose, or chicken anti-SynCAM-Biotin and streptavidin Dynabeads; IgG or IgY controls; western blot.

By UniProt entry, the sequences of proteins in these tests, tags left out. Residues count along the entry.
UniProt P19491, residues 22-883: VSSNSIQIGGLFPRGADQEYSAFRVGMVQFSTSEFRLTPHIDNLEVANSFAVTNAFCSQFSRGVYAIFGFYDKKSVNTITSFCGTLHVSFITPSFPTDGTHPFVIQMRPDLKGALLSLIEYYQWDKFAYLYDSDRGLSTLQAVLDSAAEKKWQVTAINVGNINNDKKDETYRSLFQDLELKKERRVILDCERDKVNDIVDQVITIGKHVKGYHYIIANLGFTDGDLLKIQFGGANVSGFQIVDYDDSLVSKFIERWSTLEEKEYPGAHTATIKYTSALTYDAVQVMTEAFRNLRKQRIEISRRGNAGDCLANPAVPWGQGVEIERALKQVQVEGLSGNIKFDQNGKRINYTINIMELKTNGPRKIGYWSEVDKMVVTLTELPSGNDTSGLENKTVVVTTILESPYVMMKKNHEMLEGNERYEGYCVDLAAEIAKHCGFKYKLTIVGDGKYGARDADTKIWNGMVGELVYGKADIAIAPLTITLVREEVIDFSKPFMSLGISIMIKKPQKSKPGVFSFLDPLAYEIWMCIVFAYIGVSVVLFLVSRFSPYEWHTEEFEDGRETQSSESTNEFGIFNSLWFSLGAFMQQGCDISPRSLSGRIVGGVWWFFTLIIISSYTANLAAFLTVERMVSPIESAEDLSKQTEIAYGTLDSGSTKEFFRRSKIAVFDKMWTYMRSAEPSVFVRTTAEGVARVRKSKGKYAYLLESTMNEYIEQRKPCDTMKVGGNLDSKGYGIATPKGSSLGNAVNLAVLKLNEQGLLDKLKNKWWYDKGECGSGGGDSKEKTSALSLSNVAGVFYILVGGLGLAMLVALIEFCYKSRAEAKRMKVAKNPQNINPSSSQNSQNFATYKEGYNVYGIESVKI
UniProt P97836: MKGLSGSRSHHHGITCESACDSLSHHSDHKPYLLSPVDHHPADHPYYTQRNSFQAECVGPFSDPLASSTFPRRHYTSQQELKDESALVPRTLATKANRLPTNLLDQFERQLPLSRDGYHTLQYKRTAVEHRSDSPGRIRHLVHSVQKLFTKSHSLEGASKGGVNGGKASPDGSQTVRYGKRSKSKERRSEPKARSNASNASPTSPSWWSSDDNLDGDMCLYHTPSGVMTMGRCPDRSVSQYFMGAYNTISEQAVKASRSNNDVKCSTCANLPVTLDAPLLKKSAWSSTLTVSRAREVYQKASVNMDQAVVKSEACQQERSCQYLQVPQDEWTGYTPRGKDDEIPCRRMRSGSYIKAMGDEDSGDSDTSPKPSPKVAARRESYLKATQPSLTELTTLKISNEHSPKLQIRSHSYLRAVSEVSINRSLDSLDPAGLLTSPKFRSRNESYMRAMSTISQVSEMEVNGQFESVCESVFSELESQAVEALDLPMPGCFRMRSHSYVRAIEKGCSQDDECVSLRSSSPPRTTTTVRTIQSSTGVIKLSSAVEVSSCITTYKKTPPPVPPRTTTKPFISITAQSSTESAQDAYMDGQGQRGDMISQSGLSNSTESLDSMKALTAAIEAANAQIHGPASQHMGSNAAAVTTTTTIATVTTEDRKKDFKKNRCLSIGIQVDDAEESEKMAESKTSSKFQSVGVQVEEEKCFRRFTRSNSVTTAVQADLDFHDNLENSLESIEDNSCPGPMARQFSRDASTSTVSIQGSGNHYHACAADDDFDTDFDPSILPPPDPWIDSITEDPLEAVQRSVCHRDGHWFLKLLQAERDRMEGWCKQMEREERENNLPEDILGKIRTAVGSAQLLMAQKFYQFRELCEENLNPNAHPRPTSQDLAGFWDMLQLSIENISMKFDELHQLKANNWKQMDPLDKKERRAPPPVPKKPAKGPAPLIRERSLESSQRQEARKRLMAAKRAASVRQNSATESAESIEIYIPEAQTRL

Assay [2] has as its target T2, MYC-tagged full-length mouse MPP2 (MAGUK p55 subfamily member 2) (mouse) (UniProt Q9WV34).
T2 sequence: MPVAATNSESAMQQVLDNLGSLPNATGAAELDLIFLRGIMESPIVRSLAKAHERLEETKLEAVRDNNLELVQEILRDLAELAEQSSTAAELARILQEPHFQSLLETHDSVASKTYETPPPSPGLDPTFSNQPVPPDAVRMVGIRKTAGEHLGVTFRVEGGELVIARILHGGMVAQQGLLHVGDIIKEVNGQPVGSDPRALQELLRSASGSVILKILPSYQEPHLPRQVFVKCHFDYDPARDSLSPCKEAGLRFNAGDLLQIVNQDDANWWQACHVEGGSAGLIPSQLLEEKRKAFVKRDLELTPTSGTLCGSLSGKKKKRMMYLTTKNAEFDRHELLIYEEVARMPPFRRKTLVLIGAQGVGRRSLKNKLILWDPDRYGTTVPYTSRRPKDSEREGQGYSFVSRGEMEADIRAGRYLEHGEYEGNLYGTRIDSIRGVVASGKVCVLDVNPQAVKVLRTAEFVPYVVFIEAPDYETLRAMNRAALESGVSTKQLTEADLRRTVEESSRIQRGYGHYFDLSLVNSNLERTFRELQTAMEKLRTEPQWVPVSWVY
Nature of the assay: co-IP; tagged recombinant proteins coexpressed in COS7 cells; lysis in 50 mM Tris pH 7.4, 100 mM NaCl, 1 mM EDTA, 1% Triton-X or 0.1% NP-40; IP with anti-MYC, anti-HA or anti-PSD-95 antibody (mouse IgG as control), protein-G-agarose, 4 °C; western blot.

These are yes or no findings as the source states them, for the method shown. Binding seen in cells or lysates may run through a third protein. Some binding calls cover weakened binding; strength is not graded here. For some assays here: Tags and fused reporters may be left off the sequences shown.

Regarding “endogenous AMPA receptor subunit GluA2 from rat brain crude synaptosomes (from UniProt P19491 22-883)”, the binding result in assay [1] is reported as “binds”.
As for “FLAG-tagged recombinant GKAP (guanylate kinase associated protein) (from UniProt P97836 1-992)”, the binding result in assay [2] is reported as “binds”.
